Assay [1] has as its target Flag-USP16 (exogenous, in PC3 cells) (UniProt Q9Y5T5). As to the kind of experiment: co-IP; PC3 cells with exogenous Flag-c-Myc or Flag-USP16; immunoprecipitation with an anti-Flag antibody; endogenous partner analysed by Western blot. In general terms: Immunoblotting shows a protein as a band on a membrane.
Assay [2] deals with Flag-tagged USP16 (ubiquitin-specific protease 16) (UniProt Q9Y5T5). Briefly: co-IP; HEK293T cells transfected with Flag-tagged and V5-tagged plasmids alone or in combination; NP-40 lysis buffer; immunoprecipitation with an anti-Flag antibody on protein A/G beads, 4 °C overnight; immunoblotting.
The next assay deals with Flag-tagged c-Myc (UniProt P01106). The assay is described as above.
Assay [3] concerns the target c-Myc (endogenous, PC3 cells) (human (endogenous in PC3)) (UniProt P01106). Briefly: co-IP; endogenous c-Myc and USP16 in PC3 cells; NP-40 lysis buffer; protein A/G beads with the indicated antibodies, 4 °C overnight; Western blot.
The target in assay [4] is Flag-c-Myc (exogenous, in PC3 cells) (UniProt P01106). Briefly: co-IP; PC3 cells with exogenous Flag-c-Myc or Flag-USP16; immunoprecipitation with an anti-Flag antibody; endogenous partner analysed by Western blot.

By UniProt entry, the sequences of proteins in these tests, tags left out.
UniProt Q9Y5T5: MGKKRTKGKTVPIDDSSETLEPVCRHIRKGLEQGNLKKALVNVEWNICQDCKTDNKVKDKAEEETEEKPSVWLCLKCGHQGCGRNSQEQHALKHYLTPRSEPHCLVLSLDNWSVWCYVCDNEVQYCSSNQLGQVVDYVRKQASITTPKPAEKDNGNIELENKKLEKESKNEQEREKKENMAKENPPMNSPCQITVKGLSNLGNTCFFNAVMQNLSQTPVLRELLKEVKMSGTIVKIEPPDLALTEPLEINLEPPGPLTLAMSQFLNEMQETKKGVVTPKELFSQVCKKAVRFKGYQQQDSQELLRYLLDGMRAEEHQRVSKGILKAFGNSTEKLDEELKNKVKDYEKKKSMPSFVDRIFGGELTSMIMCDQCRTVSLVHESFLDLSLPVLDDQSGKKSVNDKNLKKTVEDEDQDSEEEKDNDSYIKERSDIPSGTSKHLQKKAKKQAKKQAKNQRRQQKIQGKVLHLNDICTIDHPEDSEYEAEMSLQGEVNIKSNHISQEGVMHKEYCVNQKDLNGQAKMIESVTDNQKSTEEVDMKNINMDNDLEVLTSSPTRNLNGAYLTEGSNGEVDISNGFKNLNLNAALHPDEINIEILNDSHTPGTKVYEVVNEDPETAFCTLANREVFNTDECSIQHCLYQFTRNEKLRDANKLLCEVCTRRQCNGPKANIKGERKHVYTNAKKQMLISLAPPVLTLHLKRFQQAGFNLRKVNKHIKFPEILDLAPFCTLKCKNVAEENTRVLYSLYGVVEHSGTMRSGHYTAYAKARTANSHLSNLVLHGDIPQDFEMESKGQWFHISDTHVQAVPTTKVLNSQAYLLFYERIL
UniProt P01106: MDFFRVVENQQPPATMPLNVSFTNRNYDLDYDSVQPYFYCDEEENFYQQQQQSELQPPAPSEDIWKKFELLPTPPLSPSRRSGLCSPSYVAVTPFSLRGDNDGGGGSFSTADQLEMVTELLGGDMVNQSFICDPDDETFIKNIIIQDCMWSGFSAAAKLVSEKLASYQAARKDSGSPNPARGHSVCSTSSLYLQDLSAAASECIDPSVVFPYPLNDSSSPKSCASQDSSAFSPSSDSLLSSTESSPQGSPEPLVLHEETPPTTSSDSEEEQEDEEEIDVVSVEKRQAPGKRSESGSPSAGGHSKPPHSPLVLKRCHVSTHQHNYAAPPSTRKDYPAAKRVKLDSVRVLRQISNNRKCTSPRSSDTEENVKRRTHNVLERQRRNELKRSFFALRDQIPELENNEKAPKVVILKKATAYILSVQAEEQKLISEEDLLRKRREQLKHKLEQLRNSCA

No constants are given. Whether binding was seen depends on the method and setting. In cells and extracts the contact can be indirect. Some results given as binding are weak or reduced against the parent protein; the word gives no strength.

With “c-Myc (endogenous, PC3 cells) (from UniProt P01106 1-454)”, the binding entry in assay [1] is recorded as “binds”.

With “V5-tagged c-Myc (from UniProt P01106 1-454)”, the binding entry in assay [2] is “binds”.

Regarding “V5-tagged USP16 (from UniProt Q9Y5T5 1-823) (enzyme)”, in the assay with Flag-tagged c-Myc, the binding result was “binds”.

In the case of “USP16 (endogenous, PC3 cells) (from UniProt Q9Y5T5 1-823) (enzyme)”, the binding entry in assay [3] and in assay [4] was “binds” in each case.

These data come from publication PMC7866668.
